In patent publication US20170049847A1:
Results are given in words; binding and its absence hold for the method and conditions named. A result given as binding can be weak or reduced; the word gives no strength.

Target: TNFR
Experiment: ELISA, peptide coated on plate, soluble receptor added, anti-human IgG-HRP, OD 450 nm

binding | Binder
binds | ACFTRTSHAC [peptide of SEQ ID NO: 2]
binds | ACRSAIGRPC [peptide of SEQ ID NO: 1]
binds | ACDGRTQALC [peptide of SEQ ID NO: 3]
